{
  "sequences": {"note": "Protein sequences, listed by entry. Tags and fused reporters are not part of them. Lines headed by an entry give the natural chain unless they say otherwise; changes in a name come on top.", "UniProt P46940, whole entry, looked up": "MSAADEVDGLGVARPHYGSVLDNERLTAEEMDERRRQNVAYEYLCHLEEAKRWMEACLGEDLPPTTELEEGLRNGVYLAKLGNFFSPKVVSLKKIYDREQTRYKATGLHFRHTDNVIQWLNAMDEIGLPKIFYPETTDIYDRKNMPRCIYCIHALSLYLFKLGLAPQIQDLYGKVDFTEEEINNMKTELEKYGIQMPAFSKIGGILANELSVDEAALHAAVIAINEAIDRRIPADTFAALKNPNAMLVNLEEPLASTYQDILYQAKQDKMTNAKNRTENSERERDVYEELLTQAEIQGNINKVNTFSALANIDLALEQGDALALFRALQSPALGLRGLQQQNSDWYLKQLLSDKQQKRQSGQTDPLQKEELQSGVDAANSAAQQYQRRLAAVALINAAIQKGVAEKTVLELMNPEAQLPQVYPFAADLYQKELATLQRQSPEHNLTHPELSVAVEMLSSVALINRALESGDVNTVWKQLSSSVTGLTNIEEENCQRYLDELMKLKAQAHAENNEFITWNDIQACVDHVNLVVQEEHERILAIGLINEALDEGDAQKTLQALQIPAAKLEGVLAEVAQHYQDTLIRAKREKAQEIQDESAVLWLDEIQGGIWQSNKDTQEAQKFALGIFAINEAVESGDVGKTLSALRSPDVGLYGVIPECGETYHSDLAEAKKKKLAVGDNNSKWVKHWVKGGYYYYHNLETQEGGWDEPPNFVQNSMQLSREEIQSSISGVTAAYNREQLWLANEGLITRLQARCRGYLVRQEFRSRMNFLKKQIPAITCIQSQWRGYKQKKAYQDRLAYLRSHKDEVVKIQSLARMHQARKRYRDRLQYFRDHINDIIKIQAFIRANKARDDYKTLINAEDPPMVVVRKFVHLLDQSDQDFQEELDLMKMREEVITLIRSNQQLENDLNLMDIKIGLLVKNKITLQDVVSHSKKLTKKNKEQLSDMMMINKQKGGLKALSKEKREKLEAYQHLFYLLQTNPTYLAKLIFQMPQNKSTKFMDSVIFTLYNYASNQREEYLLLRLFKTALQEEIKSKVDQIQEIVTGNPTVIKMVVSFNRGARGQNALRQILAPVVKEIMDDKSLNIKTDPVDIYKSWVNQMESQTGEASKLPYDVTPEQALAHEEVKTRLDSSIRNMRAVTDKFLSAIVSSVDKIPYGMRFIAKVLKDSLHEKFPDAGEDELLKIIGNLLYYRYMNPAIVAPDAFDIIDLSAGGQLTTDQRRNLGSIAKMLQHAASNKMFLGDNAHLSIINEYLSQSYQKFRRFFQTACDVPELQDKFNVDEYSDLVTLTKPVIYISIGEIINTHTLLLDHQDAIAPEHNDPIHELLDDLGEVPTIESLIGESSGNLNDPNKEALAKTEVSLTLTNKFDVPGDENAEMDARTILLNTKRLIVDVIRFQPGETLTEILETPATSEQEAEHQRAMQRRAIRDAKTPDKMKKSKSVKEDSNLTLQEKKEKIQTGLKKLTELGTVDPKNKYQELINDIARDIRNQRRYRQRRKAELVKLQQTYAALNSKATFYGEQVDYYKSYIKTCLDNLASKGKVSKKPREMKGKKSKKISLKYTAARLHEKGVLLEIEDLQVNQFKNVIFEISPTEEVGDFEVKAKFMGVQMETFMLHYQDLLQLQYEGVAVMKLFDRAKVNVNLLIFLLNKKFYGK", "UniProt Q96AB3": "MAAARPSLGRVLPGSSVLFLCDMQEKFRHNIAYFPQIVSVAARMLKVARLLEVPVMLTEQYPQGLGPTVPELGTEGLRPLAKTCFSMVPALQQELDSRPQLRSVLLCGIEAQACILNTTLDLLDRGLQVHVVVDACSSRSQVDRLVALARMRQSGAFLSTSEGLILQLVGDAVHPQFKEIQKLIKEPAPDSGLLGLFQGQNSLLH", "UniProt Q02556": "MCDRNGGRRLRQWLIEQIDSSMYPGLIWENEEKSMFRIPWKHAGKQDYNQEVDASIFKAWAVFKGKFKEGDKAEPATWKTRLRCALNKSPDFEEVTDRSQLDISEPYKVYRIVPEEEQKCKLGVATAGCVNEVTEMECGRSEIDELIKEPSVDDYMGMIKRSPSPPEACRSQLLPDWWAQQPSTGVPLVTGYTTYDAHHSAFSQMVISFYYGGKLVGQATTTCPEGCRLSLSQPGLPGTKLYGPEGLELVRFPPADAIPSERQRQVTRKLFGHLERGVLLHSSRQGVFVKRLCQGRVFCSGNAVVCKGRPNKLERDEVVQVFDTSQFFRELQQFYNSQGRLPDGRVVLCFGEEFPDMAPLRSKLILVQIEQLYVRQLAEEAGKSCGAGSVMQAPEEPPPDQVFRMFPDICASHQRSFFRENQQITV", "UniProt P13612, whole entry, looked up": "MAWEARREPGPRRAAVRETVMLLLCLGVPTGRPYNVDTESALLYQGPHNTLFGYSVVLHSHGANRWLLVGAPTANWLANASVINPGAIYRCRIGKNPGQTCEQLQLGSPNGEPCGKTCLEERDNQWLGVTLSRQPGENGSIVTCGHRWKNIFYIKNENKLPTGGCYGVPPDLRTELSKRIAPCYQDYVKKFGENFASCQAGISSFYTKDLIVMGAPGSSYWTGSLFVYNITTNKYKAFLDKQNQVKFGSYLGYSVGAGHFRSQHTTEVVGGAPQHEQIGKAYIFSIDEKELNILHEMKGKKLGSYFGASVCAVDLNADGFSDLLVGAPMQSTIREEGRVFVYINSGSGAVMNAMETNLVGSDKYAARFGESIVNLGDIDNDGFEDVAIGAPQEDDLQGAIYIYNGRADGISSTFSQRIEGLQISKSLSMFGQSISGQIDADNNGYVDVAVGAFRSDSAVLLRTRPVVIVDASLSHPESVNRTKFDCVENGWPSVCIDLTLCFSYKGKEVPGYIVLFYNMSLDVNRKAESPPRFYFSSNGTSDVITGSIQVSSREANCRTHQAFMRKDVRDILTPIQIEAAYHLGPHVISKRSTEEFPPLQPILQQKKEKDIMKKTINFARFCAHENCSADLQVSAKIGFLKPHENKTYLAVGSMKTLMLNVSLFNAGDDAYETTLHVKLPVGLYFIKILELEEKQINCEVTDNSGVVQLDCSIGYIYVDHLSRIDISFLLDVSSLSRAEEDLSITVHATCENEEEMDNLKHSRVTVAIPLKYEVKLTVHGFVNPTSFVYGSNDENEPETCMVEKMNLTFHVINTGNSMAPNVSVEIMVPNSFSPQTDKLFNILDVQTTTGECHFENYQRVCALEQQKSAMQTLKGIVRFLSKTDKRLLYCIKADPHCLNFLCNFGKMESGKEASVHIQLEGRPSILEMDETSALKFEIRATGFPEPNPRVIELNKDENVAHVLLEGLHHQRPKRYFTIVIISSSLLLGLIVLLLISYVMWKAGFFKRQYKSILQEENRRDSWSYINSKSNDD", "UniProt Q68E01, whole entry, looked up": "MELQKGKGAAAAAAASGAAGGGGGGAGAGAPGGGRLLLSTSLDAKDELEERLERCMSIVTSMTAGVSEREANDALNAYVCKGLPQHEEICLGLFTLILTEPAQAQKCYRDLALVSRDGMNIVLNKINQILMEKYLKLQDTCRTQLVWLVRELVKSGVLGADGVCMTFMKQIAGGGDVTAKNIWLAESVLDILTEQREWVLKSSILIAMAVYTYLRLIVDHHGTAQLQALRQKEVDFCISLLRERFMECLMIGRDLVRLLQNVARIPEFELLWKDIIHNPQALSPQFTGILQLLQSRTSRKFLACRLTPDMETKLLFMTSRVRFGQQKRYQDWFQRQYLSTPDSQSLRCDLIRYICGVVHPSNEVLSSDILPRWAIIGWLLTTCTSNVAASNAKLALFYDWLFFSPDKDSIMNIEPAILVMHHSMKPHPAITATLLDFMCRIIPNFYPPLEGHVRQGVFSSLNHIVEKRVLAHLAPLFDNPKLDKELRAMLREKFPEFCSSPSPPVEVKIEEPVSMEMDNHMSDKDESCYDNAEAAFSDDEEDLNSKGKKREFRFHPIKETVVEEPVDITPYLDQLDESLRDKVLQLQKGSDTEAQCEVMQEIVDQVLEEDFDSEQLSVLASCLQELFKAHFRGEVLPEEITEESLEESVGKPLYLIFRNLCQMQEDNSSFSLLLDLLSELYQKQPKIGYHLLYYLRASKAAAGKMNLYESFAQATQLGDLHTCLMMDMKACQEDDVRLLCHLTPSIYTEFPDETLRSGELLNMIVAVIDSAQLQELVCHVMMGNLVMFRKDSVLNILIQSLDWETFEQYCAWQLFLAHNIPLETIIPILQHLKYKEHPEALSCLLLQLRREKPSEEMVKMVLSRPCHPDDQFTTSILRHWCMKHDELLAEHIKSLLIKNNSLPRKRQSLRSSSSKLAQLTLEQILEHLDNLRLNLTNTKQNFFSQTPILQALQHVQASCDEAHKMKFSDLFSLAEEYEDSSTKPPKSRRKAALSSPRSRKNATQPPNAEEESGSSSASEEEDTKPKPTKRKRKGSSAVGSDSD", "UniProt P08648, whole entry, looked up": "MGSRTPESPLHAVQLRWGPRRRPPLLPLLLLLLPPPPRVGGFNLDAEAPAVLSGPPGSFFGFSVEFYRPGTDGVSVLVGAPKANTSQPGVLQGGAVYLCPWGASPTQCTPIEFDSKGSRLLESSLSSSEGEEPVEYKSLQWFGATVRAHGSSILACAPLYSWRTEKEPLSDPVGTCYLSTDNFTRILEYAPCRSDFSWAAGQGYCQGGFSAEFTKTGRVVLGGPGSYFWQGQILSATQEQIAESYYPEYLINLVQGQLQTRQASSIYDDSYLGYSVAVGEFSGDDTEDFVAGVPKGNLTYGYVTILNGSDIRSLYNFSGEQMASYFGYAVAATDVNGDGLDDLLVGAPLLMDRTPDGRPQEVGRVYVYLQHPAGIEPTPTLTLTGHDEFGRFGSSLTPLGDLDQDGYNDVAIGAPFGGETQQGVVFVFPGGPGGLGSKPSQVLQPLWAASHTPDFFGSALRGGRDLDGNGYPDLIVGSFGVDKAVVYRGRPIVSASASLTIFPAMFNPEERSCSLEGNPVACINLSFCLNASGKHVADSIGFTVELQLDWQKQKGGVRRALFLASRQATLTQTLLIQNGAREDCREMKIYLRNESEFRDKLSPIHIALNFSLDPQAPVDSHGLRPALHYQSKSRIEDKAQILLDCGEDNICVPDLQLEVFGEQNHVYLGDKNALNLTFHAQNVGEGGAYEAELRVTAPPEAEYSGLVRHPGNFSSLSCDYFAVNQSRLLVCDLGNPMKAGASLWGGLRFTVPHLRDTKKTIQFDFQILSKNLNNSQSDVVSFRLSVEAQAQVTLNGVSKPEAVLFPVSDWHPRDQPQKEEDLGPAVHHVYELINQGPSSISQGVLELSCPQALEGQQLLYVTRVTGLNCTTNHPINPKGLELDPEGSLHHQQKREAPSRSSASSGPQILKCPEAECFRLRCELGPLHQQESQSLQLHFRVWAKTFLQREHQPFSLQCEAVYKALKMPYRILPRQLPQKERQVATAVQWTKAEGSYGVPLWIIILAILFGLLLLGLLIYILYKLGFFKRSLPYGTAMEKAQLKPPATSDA"},
  "source": "the supplement of paper PMC12067093",
  "about": "“Discovery and optimisation of a covalent ligand for TRIM25 and its application to targeted protein ubiquitination” (Chemical Science, 2025)",
  "note": "The other results are listed elsewhere or left out.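 Note: competitive chemoproteomic profiling in live THP-1 cells with an iodoacetamide desthiobiotin (IA-DTB) probe, comparing probe-labelled peptide intensities in compound-treated cells against DMSO-treated controls.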",
  "data": [
    {"compound": "CC1Cc2ccccc2N1C(=O)C1CCCN(C1)C(=O)CCl (mixture of isomers) [TRIM25 ligand 11 (diastereomer mixture)]", "experiment": "probe-labelled cysteine peptide fold change vs DMSO (competition) (log2 fold change); higher = less target engagement (more negative = stronger competition)", "settings": "10 µM; THP-1; incubation time: 4 h", "values": [
      {"target": "INTS6_Q9UL03_211_SYSVCSPR (UniProt Q9UL03)", "probe-labelled cysteine peptide fold change": 0.0134},
      {"target": "IQGAP1_P46940_494_QLSSSVTGLTNIEEENCQR (UniProt P46940)", "probe-labelled cysteine peptide fold change": 0.0951},
      {"target": "IRAK1_P51617_608_SWHLTPSCPLDPAPLR (UniProt P51617)", "probe-labelled cysteine peptide fold change": 0.202},
      {"target": "ISOC2_Q96AB3_21_VLPGSSVLFLCDMQEK (UniProt Q96AB3)", "probe-labelled cysteine peptide fold change": -0.265},
      {"target": "INPP5D_Q92835_902_APPCSGSSITEIINPNYMGVGPFGPPMPLHVK (UniProt Q92835)", "probe-labelled cysteine peptide fold change": -0.129},
      {"target": "IPO9_Q96P70_545_AIWGYCDQLK (UniProt Q96P70)", "probe-labelled cysteine peptide fold change": -0.000505},
      {"target": "INPPL1_O15357_1187_ESIQEDLAEEAPCLQGGR (UniProt O15357)", "probe-labelled cysteine peptide fold change": 0.0945},
      {"target": "IPO7_O95373_736_KVLTGVAGEDAECHAAK (UniProt O95373)", "probe-labelled cysteine peptide fold change": -0.057},
      {"target": "INPP5F_Q9Y2H2_725_DTLQCIAEMLQITK (UniProt Q9Y2H2)", "probe-labelled cysteine peptide fold change": 0.173},
      {"target": "IRF8_Q02556_138_LGVATAGCVNEVTEMECGR (UniProt Q02556)", "probe-labelled cysteine peptide fold change": 0.139},
      {"target": "INTS13_Q9NVM9_331_TNNIELHYCTGAYR (UniProt Q9NVM9)", "probe-labelled cysteine peptide fold change": 0.0141},
      {"target": "ITGB1_P05556_555_FCECDNFNCDR (UniProt P05556)", "probe-labelled cysteine peptide fold change": 0.106},
      {"target": "ISL2_Q96A47_114_DSVYHIECFR (UniProt Q96A47)", "probe-labelled cysteine peptide fold change": -0.053},
      {"target": "IPO4_Q8TEX9_726_KAAHEALGQFCCALHK (UniProt Q8TEX9)", "probe-labelled cysteine peptide fold change": -0.155},
      {"target": "ITGA4_P13612_198_KFGENFASCQAGISSFYTK (UniProt P13612)", "probe-labelled cysteine peptide fold change": -0.0972},
      {"target": "IRF2BP2_Q7Z5L9_506_EVGGQGAGNTGGLEPVHPASLPDSSLATSAPLCCTLCHER (UniProt Q7Z5L9)", "probe-labelled cysteine peptide fold change": 0.0496},
      {"target": "ITGB2_P05107_386_VTYDSFCSNGVTHR (UniProt P05107)", "probe-labelled cysteine peptide fold change": 0.0533},
      {"target": "INTS3_Q68E01_866_MVLSRPCHPDDQFTTSILR (UniProt Q68E01)", "probe-labelled cysteine peptide fold change": 0.0118},
      {"target": "IPO4_Q8TEX9_870_QGCTVAEK (UniProt Q8TEX9)", "probe-labelled cysteine peptide fold change": -0.109},
      {"target": "INPPL1_O15357_926_KPAFTEASCPLSR (UniProt O15357)", "probe-labelled cysteine peptide fold change": -0.133},
      {"target": "IQGAP1_P46940_1270_RFFQTACDVPELQDK (UniProt P46940)", "probe-labelled cysteine peptide fold change": 0.138},
      {"target": "IPO4_Q8TEX9_725+726_AAHEALGQFCCALHK (UniProt Q8TEX9)", "probe-labelled cysteine peptide fold change": -0.0817},
      {"target": "ITGAM_P11215_654_VCLHVQK (UniProt P11215)", "probe-labelled cysteine peptide fold change": -0.0105},
      {"target": "IRS2_Q9Y4H2_248_CGHSDSFFFIEVGR (UniProt Q9Y4H2)", "probe-labelled cysteine peptide fold change": -0.0929},
      {"target": "INTS8_Q75QN2_701_LGQLLAATCK (UniProt Q75QN2)", "probe-labelled cysteine peptide fold change": -0.0314},
      {"target": "IPO5_O00410_1057_IFSIIAEGEMHEAIKHEDPCAKR (UniProt O00410)", "probe-labelled cysteine peptide fold change": -0.439},
      {"target": "INTS11_Q5TA45_19_SCILVSIAGK (UniProt Q5TA45)", "probe-labelled cysteine peptide fold change": 0.0151},
      {"target": "ITGB2_P05107_286_CHLEDNLYKR (UniProt P05107)", "probe-labelled cysteine peptide fold change": -0.0811},
      {"target": "INTS9_Q9NV88_14_LYCLSGHPTLPCNVLK (UniProt Q9NV88)", "probe-labelled cysteine peptide fold change": 0.071},
      {"target": "IRF2BP2_Q7Z5L9_65_AHGCFPEGR (UniProt Q7Z5L9)", "probe-labelled cysteine peptide fold change": -0.0373},
      {"target": "ITGA5_P08648_156_AHGSSILACAPLYSWR (UniProt P08648)", "probe-labelled cysteine peptide fold change": 0.0776},
      {"target": "INTS2_Q9H0H0_1186_DTGSMDPDVQLCHCIER (UniProt Q9H0H0)", "probe-labelled cysteine peptide fold change": 0.08},
      {"target": "IPO5_O00410_1017_EEAVQTFNYLCDLIESNHPIVLGPNNTNLPK (UniProt O00410)", "probe-labelled cysteine peptide fold change": -0.0886},
      {"target": "INPP5D_Q92835_4_VPCWNHGNITR (UniProt Q92835)", "probe-labelled cysteine peptide fold change": -0.0602},
      {"target": "IPO7_O95373_477_ACWVLHYFCEVK (UniProt O95373)", "probe-labelled cysteine peptide fold change": -0.454},
      {"target": "INTS5_Q6P9B9_821_AVAVTLVESVCPDAAGAELAWPPEEHAR (UniProt Q6P9B9)", "probe-labelled cysteine peptide fold change": 0.00893},
      {"target": "INPPL1_O15357_1121_SCSVLQMAK (UniProt O15357)", "probe-labelled cysteine peptide fold change": -0.0594},
      {"target": "ITGA5_P08648_911+916_CPEAECFR (UniProt P08648)", "probe-labelled cysteine peptide fold change": -0.053},
      {"target": "IRF2BP1_Q8IU81_239_EQLLALSACAPFNVR (UniProt Q8IU81)", "probe-labelled cysteine peptide fold change": -0.0728}
    ]},
    {"compound": "CC1Cc2ccccc2N1C(=O)C1CCCN(C1)C(=O)CCl (mixture of isomers) [TRIM25 ligand 11 (diastereomer mixture)]", "experiment": "probe-labelled cysteine peptide fold change vs DMSO (competition) (log2 fold change); higher = less target engagement (more negative = stronger competition)", "settings": "50 µM; THP-1; incubation time: 4 h", "values": [
      {"target": "INTS6_Q9UL03_211_SYSVCSPR (UniProt Q9UL03)", "probe-labelled cysteine peptide fold change": -0.135},
      {"target": "IQGAP1_P46940_494_QLSSSVTGLTNIEEENCQR (UniProt P46940)", "probe-labelled cysteine peptide fold change": 0.0264},
      {"target": "IRAK1_P51617_608_SWHLTPSCPLDPAPLR (UniProt P51617)", "probe-labelled cysteine peptide fold change": -0.117},
      {"target": "ISOC2_Q96AB3_21_VLPGSSVLFLCDMQEK (UniProt Q96AB3)", "probe-labelled cysteine peptide fold change": 0.0576},
      {"target": "INPP5D_Q92835_902_APPCSGSSITEIINPNYMGVGPFGPPMPLHVK (UniProt Q92835)", "probe-labelled cysteine peptide fold change": -0.373},
      {"target": "IPO9_Q96P70_545_AIWGYCDQLK (UniProt Q96P70)", "probe-labelled cysteine peptide fold change": -0.00285},
      {"target": "INPPL1_O15357_1187_ESIQEDLAEEAPCLQGGR (UniProt O15357)", "probe-labelled cysteine peptide fold change": -0.0639},
      {"target": "IPO7_O95373_736_KVLTGVAGEDAECHAAK (UniProt O95373)", "probe-labelled cysteine peptide fold change": -0.0217},
      {"target": "INPP5F_Q9Y2H2_725_DTLQCIAEMLQITK (UniProt Q9Y2H2)", "probe-labelled cysteine peptide fold change": 0.242},
      {"target": "IRF8_Q02556_138_LGVATAGCVNEVTEMECGR (UniProt Q02556)", "probe-labelled cysteine peptide fold change": 0.00955},
      {"target": "INTS13_Q9NVM9_331_TNNIELHYCTGAYR (UniProt Q9NVM9)", "probe-labelled cysteine peptide fold change": 0.113},
      {"target": "ITGB1_P05556_555_FCECDNFNCDR (UniProt P05556)", "probe-labelled cysteine peptide fold change": 0.201},
      {"target": "ISL2_Q96A47_114_DSVYHIECFR (UniProt Q96A47)", "probe-labelled cysteine peptide fold change": -0.122},
      {"target": "IPO4_Q8TEX9_726_KAAHEALGQFCCALHK (UniProt Q8TEX9)", "probe-labelled cysteine peptide fold change": 0.0591},
      {"target": "ITGA4_P13612_198_KFGENFASCQAGISSFYTK (UniProt P13612)", "probe-labelled cysteine peptide fold change": -0.0476},
      {"target": "IRF2BP2_Q7Z5L9_506_EVGGQGAGNTGGLEPVHPASLPDSSLATSAPLCCTLCHER (UniProt Q7Z5L9)", "probe-labelled cysteine peptide fold change": -0.283},
      {"target": "ITGB2_P05107_386_VTYDSFCSNGVTHR (UniProt P05107)", "probe-labelled cysteine peptide fold change": -0.0395},
      {"target": "INTS3_Q68E01_866_MVLSRPCHPDDQFTTSILR (UniProt Q68E01)", "probe-labelled cysteine peptide fold change": -0.0418},
      {"target": "IPO4_Q8TEX9_870_QGCTVAEK (UniProt Q8TEX9)", "probe-labelled cysteine peptide fold change": -0.0581},
      {"target": "INPPL1_O15357_926_KPAFTEASCPLSR (UniProt O15357)", "probe-labelled cysteine peptide fold change": -0.273},
      {"target": "IQGAP1_P46940_1270_RFFQTACDVPELQDK (UniProt P46940)", "probe-labelled cysteine peptide fold change": 0.115},
      {"target": "IPO4_Q8TEX9_725+726_AAHEALGQFCCALHK (UniProt Q8TEX9)", "probe-labelled cysteine peptide fold change": -0.0945},
      {"target": "ITGAM_P11215_654_VCLHVQK (UniProt P11215)", "probe-labelled cysteine peptide fold change": 0.0507},
      {"target": "IRS2_Q9Y4H2_248_CGHSDSFFFIEVGR (UniProt Q9Y4H2)", "probe-labelled cysteine peptide fold change": -0.0441},
      {"target": "INTS8_Q75QN2_701_LGQLLAATCK (UniProt Q75QN2)", "probe-labelled cysteine peptide fold change": 0.054},
      {"target": "IPO5_O00410_1057_IFSIIAEGEMHEAIKHEDPCAKR (UniProt O00410)", "probe-labelled cysteine peptide fold change": -0.361},
      {"target": "INTS11_Q5TA45_19_SCILVSIAGK (UniProt Q5TA45)", "probe-labelled cysteine peptide fold change": 0.106},
      {"target": "ITGB2_P05107_286_CHLEDNLYKR (UniProt P05107)", "probe-labelled cysteine peptide fold change": 0.0597},
      {"target": "INTS9_Q9NV88_14_LYCLSGHPTLPCNVLK (UniProt Q9NV88)", "probe-labelled cysteine peptide fold change": 0.183},
      {"target": "IRF2BP2_Q7Z5L9_65_AHGCFPEGR (UniProt Q7Z5L9)", "probe-labelled cysteine peptide fold change": -0.239},
      {"target": "ITGA5_P08648_156_AHGSSILACAPLYSWR (UniProt P08648)", "probe-labelled cysteine peptide fold change": 0.0793},
      {"target": "INTS2_Q9H0H0_1186_DTGSMDPDVQLCHCIER (UniProt Q9H0H0)", "probe-labelled cysteine peptide fold change": 0.0623},
      {"target": "IPO5_O00410_1017_EEAVQTFNYLCDLIESNHPIVLGPNNTNLPK (UniProt O00410)", "probe-labelled cysteine peptide fold change": -0.183},
      {"target": "INPP5D_Q92835_4_VPCWNHGNITR (UniProt Q92835)", "probe-labelled cysteine peptide fold change": -0.145},
      {"target": "IPO7_O95373_477_ACWVLHYFCEVK (UniProt O95373)", "probe-labelled cysteine peptide fold change": 0.416},
      {"target": "INTS5_Q6P9B9_821_AVAVTLVESVCPDAAGAELAWPPEEHAR (UniProt Q6P9B9)", "probe-labelled cysteine peptide fold change": -0.195},
      {"target": "INPPL1_O15357_1121_SCSVLQMAK (UniProt O15357)", "probe-labelled cysteine peptide fold change": -0.469},
      {"target": "ITGA5_P08648_911+916_CPEAECFR (UniProt P08648)", "probe-labelled cysteine peptide fold change": -0.139},
      {"target": "IRF2BP1_Q8IU81_239_EQLLALSACAPFNVR (UniProt Q8IU81)", "probe-labelled cysteine peptide fold change": -0.0541}
    ]}
  ]
}
